Drawing on patent US20250092088A1 (CHUBU UNIVERSITY EDUCATIONAL FOUNDATION, priority 2022, published 2025), this text covers isolated yield for one substance.

This data set is described as follows: Fmoc solid-phase peptide synthesis; Fmoc-AA-SNp (p-nitrophenyl thioester). As to conditions: whole synthesis.

The substance “H-Thr(t-Bu)-Lys(Boc)-Pro-Val-Lys(Boc)-Pro-Lys(Boc)-Lys(Boc)-Val-Ala-O-TAG2” yielded an isolated yield of 78%.
